These results are taken from article PMC3555845.

The experiment has as its target T1, USH1G protein SANS (scaffold protein containing ankyrin repeats and SAM domain) (UniProt Q495M9).
T1 sequence: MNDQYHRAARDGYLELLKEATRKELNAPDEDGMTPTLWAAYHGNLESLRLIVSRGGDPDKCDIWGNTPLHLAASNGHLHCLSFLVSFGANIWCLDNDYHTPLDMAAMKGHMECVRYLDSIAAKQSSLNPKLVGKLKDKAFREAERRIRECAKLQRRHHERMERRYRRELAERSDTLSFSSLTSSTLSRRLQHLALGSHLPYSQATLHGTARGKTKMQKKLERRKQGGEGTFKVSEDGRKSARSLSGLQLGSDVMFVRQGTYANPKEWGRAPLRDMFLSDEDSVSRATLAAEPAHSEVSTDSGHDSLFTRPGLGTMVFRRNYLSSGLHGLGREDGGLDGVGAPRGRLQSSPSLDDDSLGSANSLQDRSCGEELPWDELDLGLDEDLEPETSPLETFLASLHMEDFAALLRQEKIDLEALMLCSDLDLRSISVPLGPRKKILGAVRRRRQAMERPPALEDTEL
The experiment can be described thus: pull-down; GST pull-down; which partner carried GST is not told.

These are yes or no findings as the source states them, for the method shown. In cells and extracts the contact can be indirect. Binding can be weak; no strength is given.

As for “cytoplasmic dynein intermediate chain (cDIC74)”, the binding entry is “binds”.
